Assay results as given in PMC6872521, “An in silico—in vitro Pipeline Identifying an HLA-A^*02:01^+ KRAS G12V^+ Spliced Epitope Candidate for a Broad Tumor-Immune Response in Cancer Patients” (Frontiers in Immunology, 2019).

System: 20S standard proteasomes
Test: In vitro digestion of synthetic KRAS2−35 polypeptides by 20S proteasomes, MS detection of peptide products
Format: biochemical
Conditions: for Generation by 20S proteasomes from synthetic KRAS2−35 polypeptide: 40 μM polypeptide, 3 μg 20S proteasomes, 100 μl TEAD buffer, 37°C, 20 h, targeted MS

Substance | Generation by 20S proteasomes from synthetic KRAS2−35 polypeptide | Amount produced in digestion kinetics (KRAS2−35 G12V polypeptide, 20S proteasomes, 0–4 h kinetics, quantified by titration of synthetic peptides)
[KL][VVGAVGV] [KRAS5−6/8−14 G12V] | is generated by proteasomes | produced in amounts smaller than the average amount of spliced peptides
[KL][VVGAGGV] [KRAS5−6/8−14 G12] | not produced by 20S proteasomes | –
